The values below come from article PMC4267739, “Functional Characterization of Corynebacterium glutamicum Mycothiol S-Conjugate Amidase” (PLoS ONE, 2014).

The data set deals with T1, SigH (RpoE, ECF sigma factor) (Corynebacterium glutamicum RES167).
T1 sequence (looked up): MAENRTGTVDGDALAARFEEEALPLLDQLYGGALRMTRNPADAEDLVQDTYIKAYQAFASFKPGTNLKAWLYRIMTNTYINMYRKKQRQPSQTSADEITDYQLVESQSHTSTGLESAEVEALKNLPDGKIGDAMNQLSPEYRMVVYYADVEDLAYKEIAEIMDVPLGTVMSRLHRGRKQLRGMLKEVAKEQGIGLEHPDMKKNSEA
Description: EMSA. The conditions noted are these: 0-3.0 ug His6-SigH, 20 ng DNA, no core RNA polymerase listed; 20 mM Tris-HCl pH 7.4, 4 mM MgCl2, 100 mM NaCl, 1 mM DTT, 10% glycerol, 10 ul, 30 min room temperature; 6% native PAGE with 5% glycerol, 0.5x TBE; recombinant protein; residues 1-206; protein details: His6 (pET28a, N-terminal); label: none (SYBR Green detection); probe letters rebuilt from the primers and the genome.

Protein sequences can lack the tags named with them.

In the case of “TCTAGAGCGTAGACCACTCACGTGTTTCATCCTTTCCTTGAAGCTTTATATGCTTCCGCAGGGTTTAGTTGATGTGTATTGCATTCATGATAGTCGTTTCCGCCGTCATACCTATTTACCCCTTGGATGACCTCGGTTAACAGTTTTTCCTGAGGTGACTAAGATGTATAGGTGACCAACTCGATTCGGCTTTGAAGAGGATGCAGACAGACTTCCATCATGAGTACAAATTCCAACTCTCCATCCAACGCATCAGGCGCTTCGAACATTCCAAACACCCAACGTCCGGCTAGCCGATACAATTCGCCTCGCCCGGAAGCTGCTGCAGGCAGGAACATCAGCGGAAAAATCATCGCAGTCATTGGCGTGCTGCTGGTGATCGCC (double strand) [Pmca (mca promoter, 400 bp)]”, the binding result is reported as “binds”.
